According to patent publication US12331136B2, “Anti-aging sturgeon roe tetrapeptide and preparation method and application thereof” (Shenzhen Porshealth Bioengineering Co., Ltd., priority 2023, dated 2025):
Part of at least one peptide drawing is inferred or uncertain, most often the ends. Residues, ends and D or L forms follow the SMILES beside them.

Key:
[1] = system: D-galactose induced aging mice; assay: Blood antioxidant indexes of D-galactose induced aging mice; assay type: in vivo, C57BL/6J mice; conditions: 75 mg/kg bw intragastric, 7 weeks
[2] = system: D-galactose induced aging mice; assay: Skin indexes of D-galactose induced aging mice; assay type: in vivo, C57BL/6J mice; conditions: 75 mg/kg bw intragastric, 7 weeks

CC(C)C[C@H](NC(=O)[C@@H]1CCCN1C(=O)[C@H](CC(C)C)NC(=O)[C@@H](N)CC(N)=O)C(=O)O [NLPL] (H-NLPL-OH; N-terminus and C-terminus assumed)
GSH-Px content in blood of aging mice compared with model group [1]: extremely significantly increase | MDA content in blood of aging mice, comparison of treatment groups [1]: better reducing effects | GSH content in blood of aging mice compared with model group ([1]; P<0.05): significantly increase | content of hyaluronic acid in the skin of aging mice compared with model group ([2]; P<0.01): significant effects | collagen content in the skin of aging mice compared with model group ([2]; P<0.05): significant
